Literature values as cited in patent US20090270496A1, “ANTIFUNGAL COMPOUNDS” (priority 2007, published 2009).

Tested on: Gi protein in HL-60 membranes
Details: read-out: EC50, increase of high affinity GTP hydrolysis, Hageluken et al., 1995; cited from earlier work

Structure (SMILES): CCCCc1oc2ccccc2c1C(=O)c1cc(I)c(OCCN(CC)CC)c(I)c1 [Amiodarone, amiodarone]
- EC50: 7.5 µM
